{"source": "patent US20170233637A1", "about": "“METHODS FOR INHIBITING METAL CORROSION” (OHIO UNIVERSITY, priority 2014, published 2017)", "key": {"[1]": {"experiment": "Efficacy test of VCI candidates for top of the line corrosion (weight loss, ASTM G1; surface analysis)", "conditions": "1 wt % NaCl", "description": "The temperatures of the bottom solution and gas phases were controlled by a heater, while temperature of the specimen at the top was controlled by cooling water. Through coil 20, a condenser 22 was used to prevent water and VCI vapor loss.\nIn the VCI efficacy test, corrosion rate of the specimen at the top (TLC rate) was measured by weight loss following the ASTM G1 standard. Sample surface was characterized by Scanning Electron Microscopy (SEM)/Energy Dispersive X-ray Spectroscopy (EDS).\n1-hexanethiol, 1-decanethiol and 1-dodecanethiol were chosen based on the results in the VCI screening test, data from which will be shown below. In addition, the effect of acetic acid and MEG on the inhibition performance of the best VCI candidate was also taken into account.\nFor the efficacy tests of VCI candidates for TLC, 1 wt % NaCl was also prepared and purged with CO2 for 2 hours. In order to have a gas temperature of 65° C., the bottom solution was heated to 77° C. After that the selected concentration of the VCI candidates (Table 3) was added into the bulk solution. A weight loss specimen 24, after being ground (with up to 600 grit abrasive paper), was flush-mounted at the top of the experimental setup, controlling its temperature at 32° C. using cooling water. The weight loss sample and ER probe were added 0.1 hour after addition of the VCI candidate. […]"}, "[2]": {"experiment": "VCI screening in bulk solution (BLC rate by linear polarization resistance, OCP, solution pH)", "conditions": "for Measured pH of solution: 1 wt % NaCl, 400 ppmV VCI candidate, 3.91 without VCI", "description": "Other measurements of the effectiveness of the VCI composition to inhibit corrosion may be derived from Open Circuit Potential (OCP) and Linear Polarization Resistance (Rp) experiments. In the volatile thiol screening test, a potentiostat was used to measure the Rp and the OCP of the ferrous metal sample. Corrosion rate in the water phase (BLC rate) is proportional to the corrosion current density (icorr), which was then calculated by using a B constant value of 0.026 V/decade (icorr=B/Rp/S in which S is surface area of the sample).\nA three electrode system was used in which an X65 rotating cylinder electrode (1000 RPM) was the working electrode 12, a Pt wire was used as counter electrode 14, and Ag/AgCl as the reference electrode 16. A pH probe 18 was used to measure the pH of the solution before and after adding the VCI candidates. The experiments were performed at 25° C. and 1 bar total pressure (pCO2=0.96 bar).\nIn the VCI screening test, a potentiostat was used to measure the polarization resistance (Rp) of the X65 sample. Corrosion rate in the water phase (BLC rate) is proportional to the corrosion current density (icorr) which was then calculated by using a B constant value of 0.026 V/decade (icorr=B/Rp/S in which S is surface area of the sample).\nA baseline test was performed in the absence of the VCI candidate compound. […] Dibutyl sulfide was used to compare the sulfide functional group versus the thiol functional group.\nFor the VCI screening tests, a 1 wt % NaCl solution was prepared and purged with CO2 for 2 hours at 25° C. before injecting the VCI candidate. […] After that the Open Circuit Potential (OCP) and Linear Polarization Resistance (LPR) were measured every 10 minutes during an exposure time of 3-4 hours. The pH of the solution was measured before and after adding the VCI candidate. Electrolyte resistance (ER) was measured by Electrochemical Impedance Spectroscopy (EIS)."}, "[3]": {"conditions": "400 ppmv VCI added before electrode insertion, CO2 saturated 1 wt % NaCl, 25° C., baseline −0.64 V"}}, "data": [{"smiles": "CCCCCCCCCCS", "note": "[1-decanethiol]", "values": [{"measurement": "Measured pH of the bottom solution", "setting": "[1]; 100 ppmV VCI plus 500 ppmV acetic acid", "value": 3.32}, {"measurement": "Measured pH of the bottom solution", "setting": "[1]; 100 ppmV VCI, no acetic acid, 4.17 without VCI", "value": 4.19}, {"measurement": "Measured pH of solution", "setting": "[2]", "value": 3.91}, {"measurement": "OCP", "setting": "[2]; [3]", "value": "about −0.56 V vs. Ag/AgCl"}, {"measurement": "OCP", "setting": "[2]; 400 ppmv injected after electrode insertion, increased from −0.63 V", "value": "−0.56", "unit": "V vs. Ag/AgCl"}]}, {"smiles": "CCCCCCCCCCCCS", "note": "[1-dodecanethiol]", "values": [{"measurement": "Measured pH of solution", "setting": "[2]", "value": 3.89}]}, {"smiles": "CCCCCCS", "note": "[1-hexanethiol]", "values": [{"measurement": "Measured pH of solution", "setting": "[2]", "value": 3.90}, {"measurement": "OCP", "setting": "[2]; [3]", "value": "−0.52", "unit": "V vs. Ag/AgCl"}]}, {"smiles": "CCCCSCCCC", "note": "[Dibutyl sulfide, reference compound]", "values": [{"measurement": "Measured pH of solution", "setting": "[2]", "value": 3.93}, {"measurement": "OCP", "setting": "[2]; [3]", "value": "did not significantly change"}]}]}
